In publication PMC12572374, “Regulation of ADP-ribosyltransferase activity by ART domain dimerization in PARP15” (Nature Communications, 2025):
These are yes or no findings as the source states them, for the method shown. For part of these data: Where a sequence is shown, tags or fusion partners need not be part of it. One block for each binder: values may come before it.

Legend:
[1] = target: human PARP14 ART domain (His1608-Lys1801) (human) (UniProt Q460N5); test: cross-linking; BS3 at 2:1 protein to crosslinker, protein at 2, 10 or 20 µM, 10 min room temperature, 50 mM HEPES pH 7.5, 100 mM NaCl, 4 mM MgCl2, 0.2 mM TCEP; SDS-PAGE, Coomassie; both purified
[2] = target: human PARP14 ART domain (His1608-Lys1801) (human) (UniProt Q460N5); test: SEC-MALS; SEC-RALS/LALS (OMNISEC), Superdex 200 Increase 10/300 GL; 120 µl at 0.75 mg/ml PARP15 constructs, 0.35 mg/ml PARP14 ART, 0.65 mg/ml PARP10 ART; 50 mM HEPES pH 7.5, 300 mM NaCl, 1 mM TCEP; both purified
[3] = target: PARP15 macrodomain-2 (Gly287-Asn470) (human) (UniProt Q460N3); test: cross-linking; BS3 at 2:1 protein to crosslinker, protein at 2, 10 or 20 µM, 10 min room temperature, 50 mM HEPES pH 7.5, 100 mM NaCl, 4 mM MgCl2, 0.2 mM TCEP; SDS-PAGE, Coomassie; both purified
[4] = target: PARP15 macrodomain-2 (Gly287-Asn470) (human) (UniProt Q460N3); test: SEC-MALS; SEC-RALS/LALS (OMNISEC), Superdex 200 Increase 10/300 GL; 120 µl at 0.75 mg/ml PARP15 constructs, 0.35 mg/ml PARP14 ART, 0.65 mg/ml PARP10 ART; 50 mM HEPES pH 7.5, 300 mM NaCl, 1 mM TCEP; both purified
[5] = target: PARP15 macrodomain-2 + ART domain construct (m2-ART; Gly287-Ala678) (human) (UniProt Q460N3); test: mass photometry; single particle sizing at low nanomolar protein concentrations; 20 mM HEPES pH 7.5, 50 mM NaCl, 4 mM MgCl2, 0.5 mM TCEP; both purified
[6] = target: PARP15 ART domain (Asn481-Ala678) D665A (human) (UniProt Q460N3); test: SEC; analytical SEC, Superdex 200 Increase 10/300 GL, 100 µl of each ART construct at 0.7 mg/ml; 50 mM HEPES pH 7.5, 300 mM NaCl, 10% glycerol, 0.5 mM TCEP; both purified
[7] = target: T1, human PARP15 ART domain (Asn481-Ala678), wild type (human) (UniProt Q460N3); test: mass photometry; single particle sizing at low nanomolar protein concentrations; 20 mM HEPES pH 7.5, 50 mM NaCl, 4 mM MgCl2, 0.5 mM TCEP; both purified
T1 sequence: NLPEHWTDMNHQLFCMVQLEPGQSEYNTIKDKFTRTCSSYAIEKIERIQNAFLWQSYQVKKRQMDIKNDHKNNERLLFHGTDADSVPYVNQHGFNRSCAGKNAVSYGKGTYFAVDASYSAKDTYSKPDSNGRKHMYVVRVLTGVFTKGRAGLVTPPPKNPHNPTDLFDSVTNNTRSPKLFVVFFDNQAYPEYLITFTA

[8] = target: PARP15 ART domain (Asn481-Ala678) D665R (human) (UniProt Q460N3); test: SEC; analytical SEC, Superdex 200 Increase 10/300 GL, 100 µl of each ART construct at 0.7 mg/ml; 50 mM HEPES pH 7.5, 300 mM NaCl, 10% glycerol, 0.5 mM TCEP; both purified
[9] = target: PARP15 ART domain (Asn481-Ala678) R576D (human) (UniProt Q460N3); test: as above

binding [1]: no binding (tested: 2, 10, or 20 µM)
binding [2]: no binding (tested: 0.35 mg/ml)
B1: human PARP14 ART domain (His1608-Lys1801) (domain or fragment, UniProt Q460N5 1608-1801)
chain: HWSDMKQQNFCVVELLPSDPEYNTVASKFNQTCSHFRIEKIERIQNPDLWNSYQAKKKTMDAKNGQTMNEKQLFHGTDAGSVPHVNRNGFNRSYAGKNAVAYGKGTYFAVNANYSANDTYSRPDANGRKHVYYVRVLTGIYTHGNHSLIVPPSKNPQNPTDLYDTVTDNVHHPSLFVAFYDYQAYPEYLITFRK

binding [3]: no binding (tested: 2, 10, or 20 µM)
binding [4]: no binding (tested: 0.75 mg/ml)
B2: PARP15 macrodomain-2 (Gly287-Asn470) (domain or fragment, UniProt Q460N3 287-470)
chain: GTVSKPCFTAYEMKIGAITFQVATGDIATEQVDVIVNSTARTFNRKSGVSRAILEGAGQAVESECAVLAAQPHRDFIITPGGCLKCKIIIHVPGGKDVRKTVTSVLEECEQRKYTSVSLPAIGTGNAGKNPITVADNIIDAIVDFSSQHSTPSLKTVKVVIFQPELLNIFYDSMKKRDLSASLN

B3: PARP15 macrodomain-2 + ART domain construct (m2-ART; Gly287-Ala678) (domain or fragment, human, UniProt Q460N3 287-678, looked up)
chain: GTVSKPCFTAYEMKIGAITFQVATGDIATEQVDVIVNSTARTFNRKSGVSRAILEGAGQAVESECAVLAAQPHRDFIITPGGCLKCKIIIHVPGGKDVRKTVTSVLEECEQRKYTSVSLPAIGTGNAGKNPITVADNIIDAIVDFSSQHSTPSLKTVKVVIFQPELLNIFYDSMKKRDLSASLNFQSTFSMTTCNLPEHWTDMNHQLFCMVQLEPGQSEYNTIKDKFTRTCSSYAIEKIERIQNAFLWQSYQVKKRQMDIKNDHKNNERLLFHGTDADSVPYVNQHGFNRSCAGKNAVSYGKGTYFAVDASYSAKDTYSKPDSNGRKHMYVVRVLTGVFTKGRAGLVTPPPKNPHNPTDLFDSVTNNTRSPKLFVVFFDNQAYPEYLITFTA
notes: PARP15, human, macrodomain-2 and ART domain, residues Gly287-Ala678 of the canonical isoform (isoform 1); synthetic gene, codon optimised for E. coli, in pET151/TOPO; also called PARP15 m2-ART; PARP15 isoform-2 (m2-ART); source: E. coli BL21(DE3), purified (HiTrap TALON, Superdex 200 SEC, HiTrap SP XL cation exchange)
binding [5]: no binding (condition: at low nanomolar concentrations)

binding [6]: no binding (tested: 0.7 mg/ml)
B4: PARP15 ART domain (Asn481-Ala678) D665A (domain or fragment, UniProt Q460N3 481-678)
chain: NLPEHWTDMNHQLFCMVQLEPGQSEYNTIKDKFTRTCSSYAIEKIERIQNAFLWQSYQVKKRQMDIKNDHKNNERLLFHGTDADSVPYVNQHGFNRSCAGKNAVSYGKGTYFAVDASYSAKDTYSKPDSNGRKHMYVVRVLTGVFTKGRAGLVTPPPKNPHNPTDLFDSVTNNTRSPKLFVVFFANQAYPEYLITFTA

B5: human PARP15 ART domain (Asn481-Ala678), wild type (domain or fragment, UniProt Q460N3 481-678)
chain: NLPEHWTDMNHQLFCMVQLEPGQSEYNTIKDKFTRTCSSYAIEKIERIQNAFLWQSYQVKKRQMDIKNDHKNNERLLFHGTDADSVPYVNQHGFNRSCAGKNAVSYGKGTYFAVDASYSAKDTYSKPDSNGRKHMYVVRVLTGVFTKGRAGLVTPPPKNPHNPTDLFDSVTNNTRSPKLFVVFFDNQAYPEYLITFTA
binding [7]: no binding (condition: at low nanomolar concentrations)

binding [8]: no binding (tested: 0.7 mg/ml)
B6: PARP15 ART domain (Asn481-Ala678) D665R (domain or fragment, UniProt Q460N3 481-678)
chain: NLPEHWTDMNHQLFCMVQLEPGQSEYNTIKDKFTRTCSSYAIEKIERIQNAFLWQSYQVKKRQMDIKNDHKNNERLLFHGTDADSVPYVNQHGFNRSCAGKNAVSYGKGTYFAVDASYSAKDTYSKPDSNGRKHMYVVRVLTGVFTKGRAGLVTPPPKNPHNPTDLFDSVTNNTRSPKLFVVFFRNQAYPEYLITFTA

binding [9]: no binding (tested: 0.7 mg/ml)
B7: PARP15 ART domain (Asn481-Ala678) R576D (domain or fragment, UniProt Q460N3 481-678)
chain: NLPEHWTDMNHQLFCMVQLEPGQSEYNTIKDKFTRTCSSYAIEKIERIQNAFLWQSYQVKKRQMDIKNDHKNNERLLFHGTDADSVPYVNQHGFNDSCAGKNAVSYGKGTYFAVDASYSAKDTYSKPDSNGRKHMYVVRVLTGVFTKGRAGLVTPPPKNPHNPTDLFDSVTNNTRSPKLFVVFFDNQAYPEYLITFTA
